Reference: US20260027258A1, “Antimicrobial Compositions” (Matoke Holdings Limited, priority 2022, published 2026)
Values after ≈ are worked out from the molar mass of the structure shown.

System: C. albicans
Test: Yeast susceptibility testing (EUCAST E.DEF 7.3.2 broth microdilution), C. albicans
Assay type: cell-based
Conditions: Candida albicans; C. albicans isolates (n=5); 24 hours read; MIC = growth inhibited by ≥50% (Amphotericin ≥90%); read-out: MIC geometric mean
Method: AST was used to determine a Minimum Inhibitory Concentration (MIC) value for each antifungal agent on each strain of Candida. Three comparator drugs were also tested. This allowed the effectiveness of RO-101 gel to be compared to common antifungal drugs often used to treat VVC. Antifungal agents and their concentrations were as follows: RO-101 gel (1×, 2×, 10×, 20×: 1×=0.005%, 2×=0.01%, 10×=0.05% and 20×=0.1% Gox) (1 to 500 mg/L), SurgihoneyRO (1 to 500 mg/L), RO-101 gel 0% negative control (0% Gox) (1 to 500 mg/L), Fluconazole (0.125 to 64 mg/L), Itraconazole (0.015 to 8 mg/L) and Amphotericin (0.015 to 8 mg/L). The EUCAST E.DEF 7.3.2 (EUCAST, 2022a) method for yeast susceptibility testing was followed where possible.
Stock solutions of drugs were prepared with RPMI 1640 medium with 2% glucose. This was prepared by dissolving 20.8 g of RPMI 1640 powder (Sigma, Cat. No. R-6504), 69.1 g of morpholinopropanesulfonic acid (MOPS) (Melford, Cat. No. B2003) and 36 g of glucose (Sigma, Cat. No. G7528) in 800 ml of pharmacy water (Appleton Woods). 10M sodium hydroxide (Sigma, S8045) was added to adjust the pH to 7, and then the RPMI was filter sterilised. De Man, Rogosa & Sharpe (MRS) broth was used to grow the Lactobacillus isolates. MRS broth was prepared by dissolving 51 g of MRS powder (Sigma, 69966) in 1 litre of pharmacy water. 1 ml of Tween 80 (Sigma, P8074) was then added. […]

C[C@@H]1[C@H](O)[C@@H](C)/C=C/C=C/C=C/C=C/C=C/C=C/C=C/[C@H](O[C@@H]2O[C@H](C)[C@@H](O)[C@H](N)[C@@H]2O)C[C@@H]2O[C@](O)(C[C@@H](O)C[C@@H](O)[C@H](O)CC[C@@H](O)C[C@@H](O)CC(=O)O[C@H]1C)C[C@H](O)[C@H]2C(=O)O [Amphotericin]
MIC: 0.047 µg/mL (≈ 0.0509 µM)
